No constants are given. Whether binding was seen depends on the method and setting. Binding seen in cells or lysates may run through a third protein. Some entries that bind do so weakly or less than the wild type.
Molecular target: T1, SET domain containing lysine methyltransferase 7 (SET7/9) (human (endogenous in HUVEC)) (UniProt Q8WTS6)
T1 sequence: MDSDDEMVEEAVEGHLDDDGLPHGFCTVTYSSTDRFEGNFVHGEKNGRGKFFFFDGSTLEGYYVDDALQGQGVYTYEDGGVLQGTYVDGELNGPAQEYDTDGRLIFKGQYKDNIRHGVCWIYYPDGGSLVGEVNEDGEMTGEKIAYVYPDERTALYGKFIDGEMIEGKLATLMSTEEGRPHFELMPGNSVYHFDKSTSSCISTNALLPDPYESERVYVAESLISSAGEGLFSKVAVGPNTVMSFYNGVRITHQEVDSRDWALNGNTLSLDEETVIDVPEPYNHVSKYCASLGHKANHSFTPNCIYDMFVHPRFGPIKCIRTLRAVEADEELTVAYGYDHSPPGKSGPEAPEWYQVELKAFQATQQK
Assay: co-IP; 100 μg lysate of hyperglycemia-induced HUVECs treated with Set7_1a or DMSO for 24 h under hypoxia; incubated with 10 μg SET7/9 antibody in 500 μL cell lysis buffer at 4 °C for 12 h; magnetic beads; blots with anti-SET7/9, anti-methyl lysine and anti-HIF-1α

Amino acid sequences for entries named in this document (tags omitted).
UniProt Q16665: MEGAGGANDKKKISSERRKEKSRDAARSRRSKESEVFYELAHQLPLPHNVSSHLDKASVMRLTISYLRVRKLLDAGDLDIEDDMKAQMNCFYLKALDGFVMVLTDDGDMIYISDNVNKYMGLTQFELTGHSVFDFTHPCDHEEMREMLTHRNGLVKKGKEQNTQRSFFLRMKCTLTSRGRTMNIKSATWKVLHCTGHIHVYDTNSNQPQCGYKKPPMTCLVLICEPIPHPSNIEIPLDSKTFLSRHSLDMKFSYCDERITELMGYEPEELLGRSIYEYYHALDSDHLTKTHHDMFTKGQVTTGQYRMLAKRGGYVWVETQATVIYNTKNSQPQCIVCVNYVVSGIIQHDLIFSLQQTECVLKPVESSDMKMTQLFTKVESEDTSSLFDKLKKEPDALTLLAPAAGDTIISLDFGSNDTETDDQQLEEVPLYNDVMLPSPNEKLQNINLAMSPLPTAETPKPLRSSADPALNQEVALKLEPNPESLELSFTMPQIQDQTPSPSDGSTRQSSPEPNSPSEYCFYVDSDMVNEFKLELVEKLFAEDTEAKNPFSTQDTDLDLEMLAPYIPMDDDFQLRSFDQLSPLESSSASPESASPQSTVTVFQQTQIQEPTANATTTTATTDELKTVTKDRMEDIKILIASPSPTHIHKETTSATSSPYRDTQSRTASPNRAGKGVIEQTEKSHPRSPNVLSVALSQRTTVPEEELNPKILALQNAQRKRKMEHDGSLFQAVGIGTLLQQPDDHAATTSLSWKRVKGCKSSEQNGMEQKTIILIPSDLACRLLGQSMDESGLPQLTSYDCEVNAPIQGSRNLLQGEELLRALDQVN

binding: binds
Substance: hypoxia-inducible factor-1 alpha (HIF-1α) (from UniProt Q16665 1-826)

From article PMC9356058, “Homocysteine-targeting compounds as a new treatment strategy for diabetic wounds via inhibition of the histone methyltransferase SET7/9” (Experimental & Molecular Medicine, 2022)
